Only a part is listed here, and it is no random draw. For some of these results: At the low end of the ranking, values are background and their order means little.
Experiments:
Assay in all cases: DAPPL (digital affinity profiling via proximity ligation, sequencing)
Conditions in all cases: 10 mM Tris-HCl pH 7.5, 50 mM NaCl, 1 mM DTT, 4% glycerol, room temperature, 30 min; GST-TFs on glutathione beads, 16-mer random dsDNA library, 0.1% …; high values mean tight binding; double strand, one strand shown; scale: fold enrichment (6-mer frequency, TF over GST control)
EHF = molecular target: T1, EHF (UniProt Q9NZC4)
T1 sequence: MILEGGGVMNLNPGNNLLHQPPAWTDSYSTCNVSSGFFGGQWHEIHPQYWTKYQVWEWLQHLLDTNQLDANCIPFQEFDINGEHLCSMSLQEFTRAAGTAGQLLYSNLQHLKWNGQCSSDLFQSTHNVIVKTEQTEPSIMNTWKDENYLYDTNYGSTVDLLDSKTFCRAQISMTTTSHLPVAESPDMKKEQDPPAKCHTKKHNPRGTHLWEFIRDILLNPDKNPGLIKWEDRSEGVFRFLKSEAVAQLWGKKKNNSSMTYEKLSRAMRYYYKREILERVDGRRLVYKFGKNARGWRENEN

Amino acid sequences for entries named in this document (tags omitted). A change or cut given only in a name is not applied to a line headed by its entry.
UniProt P41161: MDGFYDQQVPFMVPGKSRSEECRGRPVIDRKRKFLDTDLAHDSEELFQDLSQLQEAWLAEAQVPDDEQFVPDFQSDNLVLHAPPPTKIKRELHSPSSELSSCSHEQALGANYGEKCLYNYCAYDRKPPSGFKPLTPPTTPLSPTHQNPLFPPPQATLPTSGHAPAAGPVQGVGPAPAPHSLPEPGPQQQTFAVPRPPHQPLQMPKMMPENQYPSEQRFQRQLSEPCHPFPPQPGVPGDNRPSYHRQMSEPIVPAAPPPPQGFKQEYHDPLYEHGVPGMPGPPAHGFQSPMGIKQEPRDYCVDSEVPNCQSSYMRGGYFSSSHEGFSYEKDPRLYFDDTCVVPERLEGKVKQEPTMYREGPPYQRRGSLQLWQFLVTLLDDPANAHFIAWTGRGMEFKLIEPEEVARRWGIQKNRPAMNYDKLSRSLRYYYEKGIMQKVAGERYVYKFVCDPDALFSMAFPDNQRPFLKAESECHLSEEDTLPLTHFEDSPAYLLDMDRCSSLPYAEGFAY
UniProt Q01892: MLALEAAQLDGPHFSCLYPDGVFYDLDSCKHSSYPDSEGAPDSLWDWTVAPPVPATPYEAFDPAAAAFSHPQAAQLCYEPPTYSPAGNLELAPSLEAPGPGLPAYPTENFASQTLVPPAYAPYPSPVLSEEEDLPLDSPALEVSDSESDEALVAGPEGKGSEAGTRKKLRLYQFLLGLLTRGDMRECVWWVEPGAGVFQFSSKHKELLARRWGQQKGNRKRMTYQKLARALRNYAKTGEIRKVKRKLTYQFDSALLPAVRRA
UniProt Q99607: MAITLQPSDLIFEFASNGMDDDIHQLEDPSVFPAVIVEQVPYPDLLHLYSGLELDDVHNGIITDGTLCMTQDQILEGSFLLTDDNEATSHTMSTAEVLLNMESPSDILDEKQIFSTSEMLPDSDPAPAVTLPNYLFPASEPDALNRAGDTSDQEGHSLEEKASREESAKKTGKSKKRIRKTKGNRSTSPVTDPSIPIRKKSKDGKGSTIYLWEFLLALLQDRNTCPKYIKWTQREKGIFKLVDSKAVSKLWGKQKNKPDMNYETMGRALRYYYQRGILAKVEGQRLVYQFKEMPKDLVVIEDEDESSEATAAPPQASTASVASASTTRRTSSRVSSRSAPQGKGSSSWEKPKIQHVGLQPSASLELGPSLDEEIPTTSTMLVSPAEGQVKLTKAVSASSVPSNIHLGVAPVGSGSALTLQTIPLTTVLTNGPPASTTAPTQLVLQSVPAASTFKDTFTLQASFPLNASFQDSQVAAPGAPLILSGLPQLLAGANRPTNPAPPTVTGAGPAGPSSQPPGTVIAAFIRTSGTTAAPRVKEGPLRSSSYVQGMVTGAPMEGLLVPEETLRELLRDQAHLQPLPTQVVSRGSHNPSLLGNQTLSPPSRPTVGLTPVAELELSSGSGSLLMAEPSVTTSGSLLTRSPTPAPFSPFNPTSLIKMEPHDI

ETV5 = ETV5 (UniProt P41161)
ETV3L = molecular target: T2, ETV3L (UniProt Q6ZN32)
T2 sequence: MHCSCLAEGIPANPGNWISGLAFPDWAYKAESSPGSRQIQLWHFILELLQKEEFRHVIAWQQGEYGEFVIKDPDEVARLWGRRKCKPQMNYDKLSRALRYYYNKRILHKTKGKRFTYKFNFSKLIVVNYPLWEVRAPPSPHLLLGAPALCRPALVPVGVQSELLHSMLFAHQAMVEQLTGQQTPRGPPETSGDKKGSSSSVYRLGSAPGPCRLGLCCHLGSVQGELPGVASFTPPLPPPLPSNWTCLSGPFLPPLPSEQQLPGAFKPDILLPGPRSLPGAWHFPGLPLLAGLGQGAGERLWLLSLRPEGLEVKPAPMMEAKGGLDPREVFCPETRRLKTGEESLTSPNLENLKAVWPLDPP

SPIB = SPIB (UniProt Q01892)
FLI1 = molecular target: T3, FLI1 (UniProt Q01543)
T3 sequence: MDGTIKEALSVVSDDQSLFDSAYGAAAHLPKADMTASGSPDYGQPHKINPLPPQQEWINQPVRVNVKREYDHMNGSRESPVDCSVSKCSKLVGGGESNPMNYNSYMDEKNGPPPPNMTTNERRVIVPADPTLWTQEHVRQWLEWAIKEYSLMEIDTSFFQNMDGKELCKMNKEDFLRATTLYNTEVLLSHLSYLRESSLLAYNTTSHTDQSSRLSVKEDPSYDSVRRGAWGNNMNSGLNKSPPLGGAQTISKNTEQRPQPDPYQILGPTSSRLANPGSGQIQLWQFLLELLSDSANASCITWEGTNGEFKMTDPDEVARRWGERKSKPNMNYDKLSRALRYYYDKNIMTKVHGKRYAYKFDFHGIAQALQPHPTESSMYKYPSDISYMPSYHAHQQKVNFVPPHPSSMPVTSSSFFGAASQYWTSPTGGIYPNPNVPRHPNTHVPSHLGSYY

ELF4 = ELF4 (UniProt Q99607)
ETV2 = molecular target: T4, ETV2 (UniProt O00321)
T4 sequence: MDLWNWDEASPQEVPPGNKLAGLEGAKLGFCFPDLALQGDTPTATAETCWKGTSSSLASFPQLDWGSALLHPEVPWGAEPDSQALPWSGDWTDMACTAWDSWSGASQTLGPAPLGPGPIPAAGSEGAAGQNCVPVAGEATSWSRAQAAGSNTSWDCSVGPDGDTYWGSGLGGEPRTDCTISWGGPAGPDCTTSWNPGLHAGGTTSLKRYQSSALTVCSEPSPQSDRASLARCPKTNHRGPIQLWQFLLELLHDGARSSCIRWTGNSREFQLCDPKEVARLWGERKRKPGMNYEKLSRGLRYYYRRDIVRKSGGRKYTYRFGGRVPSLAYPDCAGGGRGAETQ

CCCGAT
binding signal (EHF): 1.22 | binding signal (ETV5): 1.2 | binding signal (ETV3L): 1.14

CTACAG
binding signal (EHF): 1.05 | binding signal (SPIB): 0.999 | binding signal (ETV5): 1.07 | binding signal (ETV3L): 1.13

TAGGTC
binding signal (EHF): 0.974 | binding signal (SPIB): 1.01 | binding signal (ETV5): 1.06 | binding signal (ETV3L): 1.02

GCTAAG
binding signal (EHF): 1.05 | binding signal (SPIB): 0.997 | binding signal (ETV5): 0.996 | binding signal (ETV3L): 0.962

GCACCT
binding signal (ETV5): 0.99 | binding signal (ETV3L): 0.973

TCAATG
binding signal (EHF): 1.04 | binding signal (SPIB): 1.11 | binding signal (ETV5): 1.02 | binding signal (ETV3L): 1.05

TCCATT
binding signal (EHF): 1.27 | binding signal (ETV5): 1.36 | binding signal (ETV3L): 1.22

AACCCG
binding signal (EHF): 1.54 | binding signal (ETV5): 1.51 | binding signal (ETV3L): 1.34

CCTCGG
binding signal (EHF): 1.33 | binding signal (ETV5): 1.2 | binding signal (ETV3L): 1.23

TGTCAA
binding signal (EHF): 0.956 | binding signal (ETV5): 0.982 | binding signal (ETV3L): 1.07

CTTATA
binding signal (SPIB): 1.39 | binding signal (ETV5): 1.29 | binding signal (ETV3L): 1.35

GGTTCA
binding signal (EHF): 0.974 | binding signal (SPIB): 1.04 | binding signal (ETV5): 1.03 | binding signal (ETV3L): 0.954

CTTCAC
binding signal (EHF): 1.41 | binding signal (ETV5): 1.37 | binding signal (ETV3L): 1.44

AAGACT
binding signal (EHF): 0.999 | binding signal (ETV5): 1.09 | binding signal (ETV3L): 1.04

CGCTAT
binding signal (EHF): 1.06 | binding signal (SPIB): 1.12 | binding signal (ETV5): 1.1 | binding signal (ETV3L): 0.981

TGATGC
binding signal (EHF): 1.58 | binding signal (ETV5): 1.49 | binding signal (ETV3L): 1.61

TAATCG
binding signal (EHF): 1.07 | binding signal (ETV5): 1.07 | binding signal (ETV3L): 1.09

CGTCTG
binding signal (SPIB): 1.18 | binding signal (ETV5): 0.981 | binding signal (ETV3L): 1.14

TAAATG
binding signal (EHF): 1.27 | binding signal (ETV5): 1.38 | binding signal (ETV3L): 1.39

CGGATC
binding signal (EHF): 1.02 | binding signal (ETV5): 1.03 | binding signal (ETV3L): 0.979

TGTATG
binding signal (EHF): 1.2 | binding signal (ETV5): 1.28 | binding signal (ETV3L): 1.23

TCCGCC
binding signal (EHF): 1.73 | binding signal (ETV5): 1.69 | binding signal (ETV3L): 1.59

ACTTGA
binding signal (EHF): 0.964 | binding signal (SPIB): 0.961 | binding signal (ETV5): 0.95 | binding signal (ETV3L): 0.99

AAGCCC
binding signal (EHF): 0.972 | binding signal (ETV5): 1.04 | binding signal (ETV3L): 1.07

TCATCT
binding signal (EHF): 1.13 | binding signal (ETV5): 1.19 | binding signal (ETV3L): 1.22

GATTTA
binding signal (EHF): 1.11 | binding signal (SPIB): 0.928 | binding signal (ETV5): 0.97 | binding signal (ETV3L): 0.975

ACCTCC
binding signal (EHF): 1.31 | binding signal (SPIB): 1.4 | binding signal (ETV5): 1.43 | binding signal (ETV3L): 1.49

AAGCAT
binding signal (SPIB): 1.14 | binding signal (ETV5): 1.06 | binding signal (ETV3L): 1.09

TGGATA
binding signal (EHF): 0.964 | binding signal (ETV5): 0.985 | binding signal (ETV3L): 1.04

GAAGTA
binding signal (EHF): 2.13 | binding signal (SPIB): 1.95 | binding signal (ETV5): 2.16 | binding signal (ETV3L): 1.79

CTTAGT
binding signal (SPIB): 1.19 | binding signal (ETV5): 1.3 | binding signal (ETV3L): 1.18

CTGTCC
binding signal (ETV5): 1.41 | binding signal (ETV3L): 1.13

CAATAC
binding signal (EHF): 1.2 | binding signal (ETV5): 1.26 | binding signal (ETV3L): 1.3

TTTCCC
binding signal (EHF): 1.69 | binding signal (ETV5): 1.93 | binding signal (ETV3L): 1.7

TCAGAT
binding signal (EHF): 0.965 | binding signal (SPIB): 1.02 | binding signal (ETV5): 0.952 | binding signal (ETV3L): 1

GCTGCA
binding signal (EHF): 1.08 | binding signal (ETV5): 0.941 | binding signal (ETV3L): 1.11

CATGCG
binding signal (SPIB): 0.982 | binding signal (ETV5): 0.987 | binding signal (ETV3L): 1.01

TATTAG
binding signal (SPIB): 0.893 | binding signal (ETV5): 1.04 | binding signal (ETV3L): 1.04

AAGGAT
binding signal (EHF): 1.25 | binding signal (ETV5): 1.17 | binding signal (ETV3L): 1.21

TAAGTA
binding signal (EHF): 1.19 | binding signal (SPIB): 1.22 | binding signal (ETV5): 1.18 | binding signal (ETV3L): 1.22

CCGTCA
binding signal (SPIB): 1.2 | binding signal (ETV5): 1.23

TCGAAC
binding signal (FLI1): 0.943

CAGGAA
binding signal (FLI1): 1.63

CCGACT
binding signal (SPIB): 1.64 | binding signal (ETV5): 1.44

AACATT
binding signal (FLI1): 1.37

CTGCGT
binding signal (FLI1): 1.12

TACGTC
binding signal (SPIB): 1.31 | binding signal (ETV5): 1.13

AACACC
binding signal (FLI1): 1.19

TTAAAT
binding signal (FLI1): 1.17

AACTCT
binding signal (SPIB): 1.28 | binding signal (ETV5): 1.36

ACTGAA
binding signal (FLI1): 1.07

TAAATT
binding signal (SPIB): 1.3 | binding signal (ETV5): 1.26

CCTTGA
binding signal (FLI1): 1.26

TTGCCC
binding signal (SPIB): 1.33 | binding signal (ETV5): 1.32

CCCTTG
binding signal (FLI1): 1.14

CAATTT
binding signal (FLI1): 1.26

GCGGAA
binding signal (FLI1): 1.37

AAGTTC
binding signal (FLI1): 1.36

TGGTCC
binding signal (FLI1): 1.25

CGTCCT
binding signal (FLI1): 1.28

TTACCT
binding signal (SPIB): 1.4 | binding signal (ETV5): 1.35

ATTTGT
binding signal (FLI1): 1.36

ACACCA
binding signal (SPIB): 0.881 | binding signal (ETV5): 1.04

TAGCTC
binding signal (SPIB): 1.05 | binding signal (ETV5): 1.25

ACCGCA
binding signal (FLI1): 1.17

AAGCAA
binding signal (FLI1): 1.03

CCCTTC
binding signal (FLI1): 1.55

TTAATA
binding signal (SPIB): 1.22 | binding signal (ETV5): 1.15

TTTGTG
binding signal (FLI1): 1.31

TACAGG
binding signal (SPIB): 1.2 | binding signal (ETV5): 1.24

GGGTTT
binding signal (FLI1): 1.17

CGTATA
binding signal (FLI1): 1.12

TTATCG
binding signal (FLI1): 1.17

CTACTG
binding signal (FLI1): 1.31

TGTGCA
binding signal (SPIB): 1.18 | binding signal (ETV5): 1.15

TTTTCT
binding signal (SPIB): 1.18 | binding signal (ETV5): 1.28

CGTTTT
binding signal (FLI1): 1.16

TAACCA
binding signal (FLI1): 1.12

AAGCCT
binding signal (FLI1): 1.21

GTGTTC
binding signal (SPIB): 1.09 | binding signal (ETV5): 1.14

AGCTCG
binding signal (FLI1): 0.986 | binding signal (EHF): 0.997 | binding signal (SPIB): 0.99 | binding signal (ELF4): 0.996 | binding signal (ETV2): 1 | binding signal (ETV3L): 0.995

ATTTAA
binding signal (FLI1): 1.24 | binding signal (ELF4): 1.13 | binding signal (ETV2): 1.17
